Reference: PMC12243203
These are yes or no findings as the source states them, for the method shown.

Target: pGBKT7-EtSERPIN1 (yeast two-hybrid bait) (Eimeria tenella)
Assay: two-hybrid; pGBKT7-EtSERPIN1 bait co-transformed with pGADT7 preys into Y2H Gold; growth and colour on DDO/X/A and QDO/X/A plates, 30 °C, 3-5 days

B1: pGADT7-GgANXA5 (yeast two-hybrid prey) (protein, UniProt P17153 1-321)
chain: MAKYTRGTVTAFSPFDARADAEALRKAMKGMGTDEETILKILTSRNNAQRQEIASAFKTLFGRDLVDDLKSELTGKFETLMVSLMRPARIFDAHALKHAIKGAGTNEKVLTEILASRTPAEVQNIKQVYMQEYEANLEDKITGETSGHFQRLLVVLLQANRDPDGRVDEALVEKDAQVLFRAGELKWGTDEETFITILGTRSVSHLRRVFDKYMTISGFQIEETIDRETSGDLEKLLLAVVKCIRSVPAYFAETLYYSMKGAGTDDDTLIRVMVSRSEIDLLDIRHEFRKNFAKSLYQMIQKDTSGDYRKALLLLCGGDDE
In the case of B1, the binding is reported as “no binding”.
